Results: publication PMC9431724
These are yes or no findings as the source states them, for the method shown. In cells and extracts the contact can be indirect. Some binding calls cover weakened binding; strength is not graded here. Where a sequence is shown, tags or fusion partners need not be part of it.

The chains behind the UniProt entries cited, without tags or fusion partners.
UniProt P35222: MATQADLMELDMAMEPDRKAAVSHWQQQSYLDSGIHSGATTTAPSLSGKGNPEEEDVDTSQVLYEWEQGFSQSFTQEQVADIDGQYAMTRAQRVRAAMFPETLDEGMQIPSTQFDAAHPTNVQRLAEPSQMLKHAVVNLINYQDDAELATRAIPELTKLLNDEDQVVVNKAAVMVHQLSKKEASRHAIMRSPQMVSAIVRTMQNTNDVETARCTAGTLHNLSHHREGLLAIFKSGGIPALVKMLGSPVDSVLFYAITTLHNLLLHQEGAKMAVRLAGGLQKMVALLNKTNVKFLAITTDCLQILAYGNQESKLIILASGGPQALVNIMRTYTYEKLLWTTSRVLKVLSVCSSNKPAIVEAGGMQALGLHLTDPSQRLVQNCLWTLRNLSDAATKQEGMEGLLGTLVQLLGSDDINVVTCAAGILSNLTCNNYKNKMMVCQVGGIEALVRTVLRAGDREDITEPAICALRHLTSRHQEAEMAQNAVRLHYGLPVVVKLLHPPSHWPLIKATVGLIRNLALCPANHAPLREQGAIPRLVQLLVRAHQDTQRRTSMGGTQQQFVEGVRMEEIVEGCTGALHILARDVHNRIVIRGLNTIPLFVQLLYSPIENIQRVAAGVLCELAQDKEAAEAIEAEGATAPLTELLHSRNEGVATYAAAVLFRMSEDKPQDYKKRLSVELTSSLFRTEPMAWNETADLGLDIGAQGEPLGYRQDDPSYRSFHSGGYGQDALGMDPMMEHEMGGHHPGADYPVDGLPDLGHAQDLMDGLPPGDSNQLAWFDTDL

Columns and labels:
[1] = molecular target: endogenous β-catenin (CTNNB1) (human (endogenous in HEK293T; the cells are told for Figure 9A only)) (UniProt P35222); assay: co-IP; FLAG-p120 (WT, variant or empty vector) with overexpressed HA-VE-cadherin or endogenous β-catenin, Western blot; which protein was precipitated is not told in the main text
[2] = molecular target: T1, HA-VE-cadherin (vascular endothelial-cadherin, CDH5), overexpressed (UniProt P33151); assay: as above
T1 sequence: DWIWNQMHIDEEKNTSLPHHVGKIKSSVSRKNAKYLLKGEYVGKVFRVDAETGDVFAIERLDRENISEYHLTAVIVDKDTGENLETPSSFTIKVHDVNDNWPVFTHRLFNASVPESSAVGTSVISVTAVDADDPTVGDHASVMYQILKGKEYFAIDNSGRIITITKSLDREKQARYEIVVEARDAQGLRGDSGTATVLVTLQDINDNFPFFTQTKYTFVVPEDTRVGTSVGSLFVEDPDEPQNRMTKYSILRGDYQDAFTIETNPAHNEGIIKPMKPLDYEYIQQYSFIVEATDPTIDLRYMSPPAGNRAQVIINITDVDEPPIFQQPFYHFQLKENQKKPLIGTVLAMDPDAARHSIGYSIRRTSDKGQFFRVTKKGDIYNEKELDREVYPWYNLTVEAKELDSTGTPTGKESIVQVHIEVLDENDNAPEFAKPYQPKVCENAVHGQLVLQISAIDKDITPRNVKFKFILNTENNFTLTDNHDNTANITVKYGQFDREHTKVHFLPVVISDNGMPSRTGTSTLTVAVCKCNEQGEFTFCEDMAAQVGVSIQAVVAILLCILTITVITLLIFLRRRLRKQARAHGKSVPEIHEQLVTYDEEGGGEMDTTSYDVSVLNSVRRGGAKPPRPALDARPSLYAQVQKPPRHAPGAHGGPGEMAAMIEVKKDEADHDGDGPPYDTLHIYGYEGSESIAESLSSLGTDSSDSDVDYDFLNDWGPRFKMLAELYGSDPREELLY

binding [1]: binds | binding [2]: binds
B1: FLAG-p120 wild type (p120-catenin, encoded by CTNND1) (protein, UniProt O60716-1 1-968)
chain: MDDSEVESTASILASVKEQEAQFEKLTRALEEERRHVSAQLERVRVSPQDANPLMANGTLTRRHQNGRFVGDADLERQKFSDLKLNGPQDHSHLLYSTIPRMQEPGQIVETYTEEDPEGAMSVVSVETSDDGTTRRTETTVKKVVKTVTTRTVQPVAMGPDGLPVDASSVSNNYIQTLGRDFRKNGNGGPGPYVGQAGTATLPRNFHYPPDGYSRHYEDGYPGGSDNYGSLSRVTRIEERYRPSMEGYRAPSRQDVYGPQPQVRVGGSSVDLHRFHPEPYGLEDDQRSMGYDDLDYGMMSDYGTARRTGTPSDPRRRLRSYEDMIGEEVPSDQYYWAPLAQHERGSLASLDSLRKGGPPPPNWRQPELPEVIAMLGFRLDAVKSNAAAYLQHLCYRNDKVKTDVRKLKGIPVLVGLLDHPKKEVHLGACGALKNISFGRDQDNKIAIKNCDGVPALVRLLRKARDMDLTEVITGTLWNLSSHDSIKMEIVDHALHALTDEVIIPHSGWEREPNEDCKPRHIEWESVLTNTAGCLRNVSSERSEARRKLRECDGLVDALIFIVQAEIGQKDSDSKLVENCVCLLRNLSYQVHREIPQAERYQEAAPNVANNTGPHAASCFGAKKGKDEWFSRGKKPIEDPANDTVDFPKRTSPARGYELLFQPEVVRIYISLLKESKTPAILEASAGAIQNLCAGRWTYGRYIRSALRQEKALSAIADLLTNEHERVVKAASGALRNLAVDARNKELIGKHAIPNLVKNLPGGQQNSSWNFSEDTVISILNTINEVIAENLEAAKKLRETQGIEKLVLINKSGNRSEKEVRAAALVLQTIWGYKELRKPLEKEGWKKSDFQVNLNNASRSQSSHSYDDSTLPLIDRNQKSDKKPDREEIQMSNMGSNTKSLDNNYSTPNERGDHNRTLDRSGDLGDMEPLKGTTPLMQDEGQESLEEELDVLVLDDEGGQVSYPSMQKI
